Laboratory results taken from publication PMC4718629, “Molecular Determinants of GS-9620-Dependent TLR7 Activation” (PLoS ONE, 2016).
Numbering of substitutions follows the chain as printed. Names and notes keep the numbering of the source. These are yes or no findings as the source states them, for the method shown. Binding seen in cells or lysates may run through a third protein. Some entries that bind do so weakly or less than the wild type. Sequences can lack the tags named with a protein. Each block holds one binder with its values, some of them ahead of it.

Key:
Assay in all cases: co-IP; lysates of cells co-transfected with V5- and HA-tagged receptors; precipitated with anti-V5 agarose for 3 hours at 4°C; blotted with anti-HA mAb; cells untreated or treated with GS-9620 (0.1, 1 and 5 uM)
[1] = target: human TLR7, wild type, with C-terminal V5 or HA tag (human) (UniProt Q9NYK1)
[2] = target: human TLR7 D555A with C-terminal V5 or HA tag (human) (UniProt Q9NYK1)
[3] = target: human TLR7 F408A with C-terminal V5 or HA tag (human) (UniProt Q9NYK1)

- binding [1]: binds
B1: full-length recombinant human TLR7 (residues 27-1049) with N-terminal 6HIS tag (receptor, UniProt Q9NYK1 27-1049, looked up)
chain: ARWFPKTLPCDVTLDVPKNHVIVDCTDKHLTEIPGGIPTNTTNLTLTINHIPDISPASFHRLDHLVEIDFRCNCVPIPLGSKNNMCIKRLQIKPRSFSGLTYLKSLYLDGNQLLEIPQGLPPSLQLLSLEANNIFSIRKENLTELANIEILYLGQNCYYRNPCYVSYSIEKDAFLNLTKLKVLSLKDNNVTAVPTVLPSTLTELYLYNNMIAKIQEDDFNNLNQLQILDLSGNCPRCYNAPFPCAPCKNNSPLQIPVNAFDALTELKVLRLHSNSLQHVPPRWFKNINKLQELDLSQNFLAKEIGDAKFLHFLPSLIQLDLSFNFELQVYRASMNLSQAFSSLKSLKILRIRGYVFKELKSFNLSPLHNLQNLEVLDLGTNFIKIANLSMFKQFKRLKVIDLSVNKISPSGDSSEVGFCSNARTSVESYEPQVLEQLHYFRYDKYARSCRFKNKEASFMSVNESCYKYGQTLDLSKNSIFFVKSSDFQHLSFLKCLNLSGNLISQTLNGSEFQPLAELRYLDFSNNRLDLLHSTAFEELHKLEVLDISSNSHYFQSEGITHMLNFTKNLKVLQKLMMNDNDISSSTSRTMESESLRTLEFRGNHLDVLWREGDNRYLQLFKNLLKLEELDISKNSLSFLPSGVFDGMPPNLKNLSLAKNGLKSFSWKKLQCLKNLETLDLSHNQLTTVPERLSNCSRSLKNLILKNNQIRSLTKYFLQDAFQLRYLDLSSNKIQMIQKTSFPENVLNNLKMLLLHHNRFLCTCDAVWFVWWVNHTEVTIPYLATDVTCVGPGAHKGQSVISLDLYTCELDLTNLILFSLSISVSLFLMVMMTASHLYFWDVWYIYHFCKAKIKGYQRLISPDCCYDAFIVYDTKDPAVTEWVLAELVAKLEDPREKHFNLCLEERDWLPGQPVLENLSQSIQLSKKTVFVMTDKYAKTENFKIAFYLSHQRLMDEKVDVIILIFLEKPFQKSKFLQLRKRLCGSSVLEWPTNPQAHPYFWQCLKNALATDNHVAYSQVFKETV
notes: human Toll-like receptor 7 (TLR7), residues 27-1049; also called recTLR7; recombinant TLR7

- binding [2]: binds
B2: human TLR7 D555A with C-terminal V5 or HA tag (receptor, UniProt Q9NYK1 27-1049)
chain: B1 chain with D529A

- binding [3]: binds
B3: human TLR7 F408A with C-terminal V5 or HA tag (receptor, UniProt Q9NYK1 27-1049)
chain: B1 chain with F382A
